Laboratory results taken from PubChem BioAssay AID248 (DTP/NCI, 2004).
The list does not hold the whole screen: it gathers tests that were run many times, whatever their T/C, doses with no T/C, and many T/C values between a quarter and a half above the control. Other doses and runs of a compound stand elsewhere. T/C is the treated group as % of the vehicle group. Some entries give survivors of the animals treated and no T/C: the source files T/C as zero there, which appears to mark a toxic dose or a test without result, not a measured value. Some survivor counts are full or nearly so, which does not show that the dose was tolerated: the source hardly ever lists a survival T/C far under the control, and the zero likely stands for such cases as well. Counts of survivors are from the toxicity check (mostly the fifth day) where no day follows; animals may have died later. Schedule codes are those of the source, taken here to give the interval after Q, in days (D) or hours (H), and the number of doses after X. Some schedule codes hold Z or #, which are not explained here. Some entries were tested several times; the values are given in rising order. For survival time, the PubChem record calls one and a half times the control and up active, and a quarter to a half above the control has no call in these data; cut-offs in other NCI protocols can differ. Some T/C values are followed by the survivors on the day toxicity was checked, most often the fifth; without a count, all were alive then.

System: L1210 leukemia ip in BDF1 mice, survival T/C
Experiment: NCI In Vivo Anticancer Drug Screen. Data for tumor model L1210 Leukemia (intraperitoneal) in B6D2F1 (BDF1) mice
Settings: T/C endpoint: mean survival time, higher T/C = longer survival
[1] = dose: 225.0 mg/kg/injection, schedule: Q01DX Z (ip), vehicle: methylcellulose (MC)
[2] = dose: 337.5 mg/kg/injection, schedule: Q01DX Z (ip), vehicle: methylcellulose (MC)
[3] = dose: 400.0 mg/kg/injection, schedule: Q04DX002 (ip), vehicle: saline
[4] = dose: 400.0 mg/kg/injection, schedule: Q04DX003 (ip), vehicle: saline with Tween-80
[5] = dose: 400.0 mg/kg/injection, schedule: Q01DX009 (ip), vehicle: saline

## CCC1(c2ccccc2)C(=O)N(CBr)C(=O)N(CBr)C1=O
dose: 50.0 mg/kg/injection, schedule: Q01DX009 (ip), vehicle: saline with Tween-80
  survivor count: 2 of 3
dose: 200.0 mg/kg/injection, schedule: Q01DX009 (ip), vehicle: saline with Tween-80
  survivor count: 1 of 3
dose: 400.0 mg/kg/injection, schedule: Q04DX002 (ip), vehicle: saline with Tween-80
  survivor count: 3 of 3

## CC1CCN1Cc1ccccc1 (stereo unspecified)
dose: 100.0 mg/kg/injection, schedule: Q04DX003 (ip), vehicle: acetone
  survivor count: 6 of 6
dose: 115.0 mg/kg/injection, schedule: Q01DX009 (ip), vehicle: saline
  survivor count: 3 of 6
dose: 170.0 mg/kg/injection, schedule: Q01DX009 (ip), vehicle: saline
  survivor count: 0 of 6
dose: 200.0 mg/kg/injection, schedule: Q04DX003 (ip), vehicle: acetone
  survivor count: 0 of 6
dose: 400.0 mg/kg/injection, schedule: Q04DX003 (ip), vehicle: acetone
  survivor count: 0 of 6

## CN1C2CC(=O)CC1C(O)C2 (stereo unspecified)
dose: 50.0 mg/kg/injection, schedule: Q01DX001 (ip), vehicle: saline
  survivor count: 4 of 4
dose: 200.0 mg/kg/injection, schedule: Q01DX001 (ip), vehicle: saline
  survivor count: 4 of 4

## N=C(N)c1ccccc1
dose: 100.0 mg/kg/injection, schedule: Q01DX Z (ip), vehicle: methylcellulose (MC)
  survivor count: 6 of 6
[1]
  T/C: 90 [5 of 6 alive], 102, 108 % of control [5 of 6 alive]
  survivor count: 3 of 6
[2]
  T/C: 97 and 121 % of control [5 of 7 alive]
  survivor count: 0 of 6 and 2 of 6
dose: 506.0 mg/kg/injection, schedule: Q01DX Z (ip), vehicle: methylcellulose (MC)
  survivor count: 0 of 6 and 0 of 7
dose: 759.0 mg/kg/injection, schedule: Q01DX Z (ip), vehicle: methylcellulose (MC)
  survivor count: 0 of 6 and 0 of 7

## CN(C)CCCNCC(Cc1ccccc1)c1ccccc1 (stereo unspecified)
dose: 200.0 mg/kg/injection, schedule: Q04DX002 (ip), vehicle: saline
  survivor count: 1 of 3
[3]
  survivor count: 0 of 3

## COc1cc(NC(C)CCCN)c2ncccc2c1 (stereo unspecified)
dose: 200.0 mg/kg/injection, schedule: Q04DX003 (ip), vehicle: saline with Tween-80
  survivor count: 0 of 6
[4]
  survivor count: 0 of 6

## Cc1cc2c(cc1C)N(C(=O)CCl)CCN2C(=O)CCl
dose: 40.0 mg/kg/injection, schedule: Q01DX Z (ip), vehicle: carboxymethylcellulose (CMC)
  survivor count: 2 of 6

## CC1(C#N)CC(C#N)Nc2ccccc2N1 (stereo unspecified)
[5]
  survivor count: 3 of 6

## CC(=O)C(C(C)=O)c1ccccc1.CC(=O)C(C(C)=O)c1ccccc1.[Ni]
dose: 50.0 mg/kg/injection, schedule: Q01DX009 (ip), vehicle: saline
  survivor count: 0 of 6
dose: 75.0 mg/kg/injection, schedule: Q01DX009 (ip), vehicle: saline
  survivor count: 0 of 6
dose: 150.0 mg/kg/injection, schedule: Q01DX009 (ip), vehicle: saline
  survivor count: 0 of 6

## CC(C)(C)C(=O)CC(=O)C(C)(C)C.CC(C)(C)C(=O)CC(=O)C(C)(C)C.[Zn]
[4]
  survivor count: 1 of 6

## CCOc1c(/C=N/NC(=O)c2ccccc2OC)cccc1OC
dose: 400.0 mg/kg/injection, schedule: Q01DX009 (ip), vehicle: Klucel (hydroxypropylcellulose) (HPC)
  survivor count: 4 of 6

## CN1C(=O)C2(C)CCC1c1ccccc12 (stereo unspecified)
dose: 400.0 mg/kg/injection, schedule: Q01DX001 (ip), vehicle: other
  survivor count: 6 of 6

## OCCN1CCN(C(=S)[S-])CC1.OCCN1CCN(C(=S)[S-])CC1.[Zn]
dose: 40.0 mg/kg/injection, schedule: Q04DX003 (ip), vehicle: saline
  survivor count: 0 of 6
dose: 75.0 mg/kg/injection, schedule: Q01DX001 (ip), vehicle: saline
  survivor count: 0 of 6
dose: 150.0 mg/kg/injection, schedule: Q01DX001 (ip), vehicle: saline
  survivor count: 0 of 6
dose: 300.0 mg/kg/injection, schedule: Q01DX001 (ip), vehicle: saline
  survivor count: 0 of 6

## Cc1cc2cc3n(c2nn1)N=CCC3
[3]
  survivor count: 0 of 3

## CCC(C)C(CCN1CCCC1)(CNC(=O)CN(CC)CC)c1cccc2ccccc12 (stereo unspecified)
dose: 200.0 mg/kg/injection, schedule: Q01DX009 (ip), vehicle: saline
  survivor count: 0 of 6
[5]
  survivor count: 0 of 6
